# Test results from paper PMC4579570.
# The chains behind the UniProt entries cited, without tags or fusion partners. Where a name states a change or a piece, a line headed by the entry shows the natural chain unless it says otherwise.
# UniProt P15208: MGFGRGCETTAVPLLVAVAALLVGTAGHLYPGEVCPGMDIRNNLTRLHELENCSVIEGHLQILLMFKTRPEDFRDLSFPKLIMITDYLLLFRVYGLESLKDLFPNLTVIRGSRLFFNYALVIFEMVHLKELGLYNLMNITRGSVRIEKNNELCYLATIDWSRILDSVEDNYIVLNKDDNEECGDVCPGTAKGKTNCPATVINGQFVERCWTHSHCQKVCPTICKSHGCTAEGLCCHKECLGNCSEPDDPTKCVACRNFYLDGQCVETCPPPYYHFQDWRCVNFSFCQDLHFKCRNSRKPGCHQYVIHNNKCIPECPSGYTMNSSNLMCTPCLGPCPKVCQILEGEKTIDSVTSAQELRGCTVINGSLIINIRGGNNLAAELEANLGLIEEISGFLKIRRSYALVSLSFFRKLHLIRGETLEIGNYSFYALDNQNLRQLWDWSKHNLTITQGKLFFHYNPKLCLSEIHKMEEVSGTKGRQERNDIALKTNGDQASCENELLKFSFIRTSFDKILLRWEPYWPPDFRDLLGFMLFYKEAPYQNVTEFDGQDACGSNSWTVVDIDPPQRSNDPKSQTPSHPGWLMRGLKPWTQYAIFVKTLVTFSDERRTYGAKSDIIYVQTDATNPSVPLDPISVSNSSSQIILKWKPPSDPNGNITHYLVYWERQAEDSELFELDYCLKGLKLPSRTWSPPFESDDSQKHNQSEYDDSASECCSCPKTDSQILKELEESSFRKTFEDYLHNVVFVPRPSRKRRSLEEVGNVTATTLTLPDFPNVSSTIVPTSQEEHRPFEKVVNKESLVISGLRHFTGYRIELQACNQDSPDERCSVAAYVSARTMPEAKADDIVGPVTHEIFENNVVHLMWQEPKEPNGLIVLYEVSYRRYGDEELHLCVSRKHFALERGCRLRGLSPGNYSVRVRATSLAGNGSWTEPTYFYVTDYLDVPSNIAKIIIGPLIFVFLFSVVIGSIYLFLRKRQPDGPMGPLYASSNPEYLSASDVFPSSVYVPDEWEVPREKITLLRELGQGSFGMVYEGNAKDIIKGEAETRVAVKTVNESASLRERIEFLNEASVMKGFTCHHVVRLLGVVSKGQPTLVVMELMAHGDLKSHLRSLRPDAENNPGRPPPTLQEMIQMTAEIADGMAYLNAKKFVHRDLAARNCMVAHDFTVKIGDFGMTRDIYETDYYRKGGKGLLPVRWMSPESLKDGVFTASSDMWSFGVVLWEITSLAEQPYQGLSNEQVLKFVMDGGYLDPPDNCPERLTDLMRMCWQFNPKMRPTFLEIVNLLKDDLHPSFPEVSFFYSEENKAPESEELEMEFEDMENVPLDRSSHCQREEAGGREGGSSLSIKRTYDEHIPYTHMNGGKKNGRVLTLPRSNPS
# UniProt Q8CDJ3: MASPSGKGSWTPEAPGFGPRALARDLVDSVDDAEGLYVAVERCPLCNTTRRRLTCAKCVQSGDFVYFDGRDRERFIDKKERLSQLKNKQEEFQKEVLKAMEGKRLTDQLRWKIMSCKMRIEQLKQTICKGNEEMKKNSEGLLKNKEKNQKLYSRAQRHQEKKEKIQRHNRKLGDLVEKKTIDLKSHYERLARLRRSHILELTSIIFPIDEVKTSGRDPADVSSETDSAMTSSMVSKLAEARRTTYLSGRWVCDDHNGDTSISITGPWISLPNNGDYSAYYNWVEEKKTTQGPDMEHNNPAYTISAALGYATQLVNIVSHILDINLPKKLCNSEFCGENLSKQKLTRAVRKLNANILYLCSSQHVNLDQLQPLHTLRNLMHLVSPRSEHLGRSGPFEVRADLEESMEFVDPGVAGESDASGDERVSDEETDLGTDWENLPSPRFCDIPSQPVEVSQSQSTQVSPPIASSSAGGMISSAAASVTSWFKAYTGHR
# UniProt Q6PF93: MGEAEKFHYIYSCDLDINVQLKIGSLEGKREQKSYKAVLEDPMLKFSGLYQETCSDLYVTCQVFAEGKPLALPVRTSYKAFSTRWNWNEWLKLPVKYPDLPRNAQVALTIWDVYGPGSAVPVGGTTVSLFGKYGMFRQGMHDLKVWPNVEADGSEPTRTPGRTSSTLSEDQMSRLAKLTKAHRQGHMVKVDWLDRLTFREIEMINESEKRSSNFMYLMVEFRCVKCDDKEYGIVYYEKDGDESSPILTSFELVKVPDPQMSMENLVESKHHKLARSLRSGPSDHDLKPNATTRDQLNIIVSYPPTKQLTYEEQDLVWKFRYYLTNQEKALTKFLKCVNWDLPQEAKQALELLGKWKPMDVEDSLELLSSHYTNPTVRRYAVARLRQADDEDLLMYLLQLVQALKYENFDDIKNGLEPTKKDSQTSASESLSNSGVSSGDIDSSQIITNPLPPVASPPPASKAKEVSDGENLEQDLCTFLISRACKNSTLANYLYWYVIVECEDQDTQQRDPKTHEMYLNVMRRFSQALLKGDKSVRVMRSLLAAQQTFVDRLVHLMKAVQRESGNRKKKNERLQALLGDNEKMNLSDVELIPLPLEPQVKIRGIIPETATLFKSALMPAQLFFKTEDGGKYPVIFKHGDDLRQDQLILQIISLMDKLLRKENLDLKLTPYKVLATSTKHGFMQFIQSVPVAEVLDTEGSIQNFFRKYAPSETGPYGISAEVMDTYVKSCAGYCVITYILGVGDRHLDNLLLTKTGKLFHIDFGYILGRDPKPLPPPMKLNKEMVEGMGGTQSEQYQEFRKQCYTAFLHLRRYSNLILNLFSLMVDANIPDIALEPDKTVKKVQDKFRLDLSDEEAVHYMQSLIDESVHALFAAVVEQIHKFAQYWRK
# UniProt P26450: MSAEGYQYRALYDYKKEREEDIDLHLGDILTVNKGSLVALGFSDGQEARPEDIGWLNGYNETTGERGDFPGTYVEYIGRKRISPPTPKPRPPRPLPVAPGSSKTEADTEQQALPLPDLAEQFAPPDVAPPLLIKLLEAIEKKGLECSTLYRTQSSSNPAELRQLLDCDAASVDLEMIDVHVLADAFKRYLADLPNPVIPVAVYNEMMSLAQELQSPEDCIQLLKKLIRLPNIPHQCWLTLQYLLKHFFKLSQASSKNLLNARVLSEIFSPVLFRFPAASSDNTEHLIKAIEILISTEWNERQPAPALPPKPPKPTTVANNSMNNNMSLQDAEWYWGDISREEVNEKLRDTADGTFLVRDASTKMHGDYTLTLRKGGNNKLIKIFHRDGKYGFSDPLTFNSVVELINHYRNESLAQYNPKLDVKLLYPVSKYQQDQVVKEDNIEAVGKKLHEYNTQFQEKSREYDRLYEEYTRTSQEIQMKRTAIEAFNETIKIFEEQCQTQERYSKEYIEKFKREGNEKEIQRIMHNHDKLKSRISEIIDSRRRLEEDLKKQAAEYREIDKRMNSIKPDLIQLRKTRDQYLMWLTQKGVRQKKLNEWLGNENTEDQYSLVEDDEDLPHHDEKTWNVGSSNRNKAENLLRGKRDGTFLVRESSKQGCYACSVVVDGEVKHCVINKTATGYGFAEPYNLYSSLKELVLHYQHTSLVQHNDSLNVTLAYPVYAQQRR
# UniProt Q8VD65: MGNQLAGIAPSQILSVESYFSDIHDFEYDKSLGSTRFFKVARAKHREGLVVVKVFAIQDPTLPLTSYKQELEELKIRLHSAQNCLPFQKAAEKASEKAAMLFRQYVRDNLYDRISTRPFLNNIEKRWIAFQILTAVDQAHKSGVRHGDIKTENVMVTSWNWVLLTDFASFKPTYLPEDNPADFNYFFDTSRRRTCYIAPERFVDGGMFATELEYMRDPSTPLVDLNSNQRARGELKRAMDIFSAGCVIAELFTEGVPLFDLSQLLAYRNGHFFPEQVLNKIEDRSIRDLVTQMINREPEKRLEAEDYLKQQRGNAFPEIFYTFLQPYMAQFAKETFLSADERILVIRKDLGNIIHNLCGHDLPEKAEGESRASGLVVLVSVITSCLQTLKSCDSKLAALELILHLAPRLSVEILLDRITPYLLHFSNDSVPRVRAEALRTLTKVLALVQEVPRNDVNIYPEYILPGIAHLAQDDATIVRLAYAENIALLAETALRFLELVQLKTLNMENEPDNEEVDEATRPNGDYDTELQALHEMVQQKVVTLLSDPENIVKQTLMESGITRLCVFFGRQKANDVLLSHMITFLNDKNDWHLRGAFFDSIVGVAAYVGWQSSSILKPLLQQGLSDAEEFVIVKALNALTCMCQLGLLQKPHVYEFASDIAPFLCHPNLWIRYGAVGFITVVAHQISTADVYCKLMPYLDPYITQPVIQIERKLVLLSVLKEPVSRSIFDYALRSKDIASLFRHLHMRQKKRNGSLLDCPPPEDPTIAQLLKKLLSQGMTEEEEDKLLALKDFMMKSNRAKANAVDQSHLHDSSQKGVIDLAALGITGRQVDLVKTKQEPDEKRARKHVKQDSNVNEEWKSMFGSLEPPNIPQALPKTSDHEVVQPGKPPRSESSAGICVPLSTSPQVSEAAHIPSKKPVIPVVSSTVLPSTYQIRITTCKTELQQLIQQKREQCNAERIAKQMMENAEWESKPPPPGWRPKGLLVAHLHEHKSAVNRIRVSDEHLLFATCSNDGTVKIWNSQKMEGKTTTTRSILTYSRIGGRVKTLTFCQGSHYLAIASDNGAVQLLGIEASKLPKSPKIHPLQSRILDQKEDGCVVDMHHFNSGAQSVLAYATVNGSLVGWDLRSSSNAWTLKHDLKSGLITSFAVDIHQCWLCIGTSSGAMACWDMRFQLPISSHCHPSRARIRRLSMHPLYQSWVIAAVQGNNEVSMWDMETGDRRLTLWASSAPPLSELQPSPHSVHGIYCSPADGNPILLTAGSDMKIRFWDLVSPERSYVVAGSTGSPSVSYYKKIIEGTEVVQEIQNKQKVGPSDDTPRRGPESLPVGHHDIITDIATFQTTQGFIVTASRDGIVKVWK
# Results are given in words; binding and its absence hold for the method and conditions named. In cells and extracts the contact can be indirect. Some entries that bind do so weakly or less than the wild type. For some of these results: Where a sequence is shown, tags or fusion partners need not be part of it.
# Experiments:
# [1] = biological target: insulin receptor (mouse (endogenous in primary hepatocytes, Hepa1.6 cells and liver)) (UniProt P15208); assay: co-IP; immunoprecipitation followed by class III PI3K biochemical (lipid kinase) assay; endogenous IR (Supplementary Fig. 3d, legend not shown)
# [2] = biological target: Atg14-related protein (ATG14) (mouse (endogenous in Hepa1.6 cells and primary hepatocytes)) (UniProt Q8CDJ3); assay: co-IP; primary hepatocytes serum starved for 24 h then stimulated with 1 μM insulin, lysed in Mild Lysis Buffer; anti-ATG14 or anti-UVRAG antibody coupled to protein G Sepharose, 4 °C, 2 h; co-immunoprecipitated Vps34 revealed by immunoblot
# [3] = biological target: T1, ultraviolet radiation resistance-associated gene protein (UVRAG) (mouse (endogenous in primary hepatocytes and Hepa1.6 cells)) (UniProt Q8K245); assay: as above
# T1 sequence: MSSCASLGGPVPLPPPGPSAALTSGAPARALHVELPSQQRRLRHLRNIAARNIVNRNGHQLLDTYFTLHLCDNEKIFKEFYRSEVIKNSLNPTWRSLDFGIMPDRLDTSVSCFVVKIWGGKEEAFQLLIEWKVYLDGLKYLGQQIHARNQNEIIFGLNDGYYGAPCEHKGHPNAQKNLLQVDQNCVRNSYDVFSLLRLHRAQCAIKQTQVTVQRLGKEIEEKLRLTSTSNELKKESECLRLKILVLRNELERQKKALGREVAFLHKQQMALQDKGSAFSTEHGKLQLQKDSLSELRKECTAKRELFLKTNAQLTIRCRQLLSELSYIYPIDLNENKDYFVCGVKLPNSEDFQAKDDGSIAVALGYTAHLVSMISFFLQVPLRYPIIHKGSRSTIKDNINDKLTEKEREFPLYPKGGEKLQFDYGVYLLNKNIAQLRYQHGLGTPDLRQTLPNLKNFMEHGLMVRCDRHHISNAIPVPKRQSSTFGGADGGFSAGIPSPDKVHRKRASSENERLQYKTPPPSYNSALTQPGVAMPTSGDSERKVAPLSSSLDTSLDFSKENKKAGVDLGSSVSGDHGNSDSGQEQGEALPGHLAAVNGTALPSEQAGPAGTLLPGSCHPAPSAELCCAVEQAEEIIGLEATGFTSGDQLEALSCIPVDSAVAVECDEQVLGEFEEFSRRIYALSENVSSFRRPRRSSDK
# [4] = biological target: Atg14-related protein (ATG14) (mouse (endogenous in Hepa1.6 cells and primary hepatocytes)) (UniProt Q8CDJ3); assay: co-IP; Hepa1.6 cells grown with (NR) or without amino acids (-AA), lysed in Mild Lysis Buffer (1% NP-40, 100 mM NaCl); anti-ATG14 or anti-UVRAG antibody coupled to protein G Sepharose, 4 °C, 2 h; co-immunoprecipitated Vps34 revealed by immunoblot
# [5] = biological target: T1, ultraviolet radiation resistance-associated gene protein (UVRAG) (mouse (endogenous in primary hepatocytes and Hepa1.6 cells)); assay: as above
# UVRAG–Flag = biological target: T2, UVRAG–Flag (UniProt Q9P2Y5); assay: co-IP; primary hepatocytes transiently transfected with UVRAG–Flag, kept in serum containing media, collected 36 h post-transfection; 1 mg extract (1% NP-40 lysis buffer) with 1 μg anti-Flag M2, 2 h at 4 °C, Protein G Sepharose; immunoblot
# T2 sequence: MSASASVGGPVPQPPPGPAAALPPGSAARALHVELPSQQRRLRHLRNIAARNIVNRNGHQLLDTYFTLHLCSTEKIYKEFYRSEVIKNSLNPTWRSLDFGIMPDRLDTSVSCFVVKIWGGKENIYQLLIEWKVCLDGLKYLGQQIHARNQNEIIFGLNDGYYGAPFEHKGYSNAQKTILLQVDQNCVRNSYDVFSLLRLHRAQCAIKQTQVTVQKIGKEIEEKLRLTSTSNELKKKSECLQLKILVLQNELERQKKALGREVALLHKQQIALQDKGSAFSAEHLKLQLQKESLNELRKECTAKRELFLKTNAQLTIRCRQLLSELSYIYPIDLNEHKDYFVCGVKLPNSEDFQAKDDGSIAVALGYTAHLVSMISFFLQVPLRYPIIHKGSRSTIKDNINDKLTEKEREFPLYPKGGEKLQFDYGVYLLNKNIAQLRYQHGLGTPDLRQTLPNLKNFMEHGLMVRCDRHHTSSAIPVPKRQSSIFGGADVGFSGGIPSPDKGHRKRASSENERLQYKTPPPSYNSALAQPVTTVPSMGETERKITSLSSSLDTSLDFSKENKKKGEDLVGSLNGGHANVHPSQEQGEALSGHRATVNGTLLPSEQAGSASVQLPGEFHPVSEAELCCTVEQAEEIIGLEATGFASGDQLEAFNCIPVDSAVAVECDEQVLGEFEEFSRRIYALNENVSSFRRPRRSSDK
# [6] = biological target: insulin receptor (mouse (endogenous in primary hepatocytes, Hepa1.6 cells and liver)) (UniProt P15208); assay: co-IP; IRβ immunoprecipitated with anti-IRβ antibody from liver total protein extracts of random-fed ob/ob mice 8 days after Adeno-shRNA SCR or Adeno-shRNA Vps15; immunoblot for p85αPI3K
# [7] = biological target: insulin receptor (mouse (endogenous in primary hepatocytes, Hepa1.6 cells and liver)) (UniProt P15208); assay: co-IP; endogenous IRβ immunoprecipitated with anti-IRβ antibody from primary hepatocytes serum starved for 24 h and stimulated with 1 μM insulin; Protein G Sepharose; immunoblot
# [8] = biological target: T3, ultraviolet radiation resistance-associated gene protein (UVRAG) (mouse (endogenous in primary hepatocytes and Hepa1.6 cells)), Q8K245; assay: co-IP; UVRAG-containing complexes immunoprecipitated with anti-UVRAG antibody from primary hepatocytes serum starved for 24 h, with or without 1 μM insulin for indicated times; Protein G Sepharose; immunoblot; details: remark: other sources report otherwise
# T3 chain: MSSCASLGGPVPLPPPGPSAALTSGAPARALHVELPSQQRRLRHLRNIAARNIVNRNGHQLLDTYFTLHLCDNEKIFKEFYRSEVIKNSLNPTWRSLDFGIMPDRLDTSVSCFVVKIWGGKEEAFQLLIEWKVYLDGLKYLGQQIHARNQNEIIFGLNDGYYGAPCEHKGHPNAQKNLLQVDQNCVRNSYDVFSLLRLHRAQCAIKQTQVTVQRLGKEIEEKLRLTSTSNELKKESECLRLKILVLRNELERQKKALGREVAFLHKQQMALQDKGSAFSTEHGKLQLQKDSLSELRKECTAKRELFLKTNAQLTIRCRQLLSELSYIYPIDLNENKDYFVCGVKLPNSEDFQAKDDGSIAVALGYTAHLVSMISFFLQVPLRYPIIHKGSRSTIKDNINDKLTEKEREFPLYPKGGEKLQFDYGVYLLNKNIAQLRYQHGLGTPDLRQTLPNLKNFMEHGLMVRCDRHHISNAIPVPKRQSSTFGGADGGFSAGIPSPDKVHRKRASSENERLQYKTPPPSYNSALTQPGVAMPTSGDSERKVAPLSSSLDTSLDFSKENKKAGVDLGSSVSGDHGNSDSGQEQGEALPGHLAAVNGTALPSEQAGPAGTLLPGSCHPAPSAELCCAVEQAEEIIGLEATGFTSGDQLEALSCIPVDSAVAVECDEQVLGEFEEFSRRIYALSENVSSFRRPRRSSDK
molecule,measurement,setting,value
Vps34 (from UniProt Q6PF93 1-887) (enzyme),binding,[1],binds
same,binding,[2],binds
same,binding,[3],binds
same,binding,[4],binds
same,binding,[5],binds
insulin receptor (from UniProt P15208 753-1372; P15208 28-748),binding,UVRAG–Flag,binds
p85αPI3K (from UniProt P26450 1-724),binding,[6],binds
Vps15 (from UniProt Q8VD65 1-1358),binding,[7],binds
"Rubicon, Q80U62 1-956 (protein) MRPEGAGMDLGGGDGERLLEKSRREHWQLLGNLKTTVEGLVSANCPNVWSKYGGLERLCRDMQNILYHGLIHDQVCCRQADYWQFVKDIRWLSPHSALHVEKFISLHESDQSDTDSVSERAVAELWLQHSLQCHCLSAQLRPLLGDRQYIRKFYTETAFLLSDAHVTAMLQCLEAVEQNNPRLLAQIDASMFARKQESPLLVTKSQSLTALPGSTYTPPASYAQHSYFGSSSSLQSMPQSSHSSERRSTSFSLSGPSWQPQEDRECLSPAETQTTPAPLPSDSTLAQDSPLTAQEMSDSTLTSPLEASWVSSQNDSPSDVSEGPEYLAIGNPAPHGRTASCESHSSNGESSSSHLFSSSSSQKLESAASSLGDQEEGRQSQAGSVLRRSSFSEGQTAPVASGTKKSHIRSHSDTNIASRGAAGGPRNITIIVEDPIAEGGQYLCSGEGMFRRPSEGQSLISYLSEQDFGSCADLEKENAHFSISESLIAAIELMKCNMMSQCLEEEEVEEEDSDREIQELKQKIRLRRQQIRTKNLLPAYRETENGSFRVTSSSSQFSSRDSTQLSESGSAEDADDLEIQDADIRRSAVSNGKSSFSQNLSHCFLHSTSAEAVAMGLLKQFEGMQLPAASELEWLVPEHDAPQKLLPIPDSLPISPDDGQHADIYKLRIRVRGNLEWAPPRPQIIFNVHPAPTRKIAVAKQNYRCAGCGIRTDPDYIKRLRYCEYLGKYFCQCCHENAQMVVPSRILRKWDFSKYYVSNFSKDLLLKIWNDPLFNVQDINSALYRKVKLLNQVRLLRVQLYHMKNMFKTCRLAKELLDSFDVVPGHLTEDLHLYSLSDLTATKKGELGPRLAELTRAGAAHVERCMLCQAKGFICEFCQNEEDVIFPFELHKCRTCEECKACYHKTCFKSGRCPRCERLQARRELLAKQSLESYLSDYEEEPTEALALEATVLETT",binding,[8],binds
"ultraviolet radiation resistance-associated gene protein (UVRAG) (protein, UniProt Q8K245 1-698) MSSCASLGGPVPLPPPGPSAALTSGAPARALHVELPSQQRRLRHLRNIAARNIVNRNGHQLLDTYFTLHLCDNEKIFKEFYRSEVIKNSLNPTWRSLDFGIMPDRLDTSVSCFVVKIWGGKEEAFQLLIEWKVYLDGLKYLGQQIHARNQNEIIFGLNDGYYGAPCEHKGHPNAQKNLLQVDQNCVRNSYDVFSLLRLHRAQCAIKQTQVTVQRLGKEIEEKLRLTSTSNELKKESECLRLKILVLRNELERQKKALGREVAFLHKQQMALQDKGSAFSTEHGKLQLQKDSLSELRKECTAKRELFLKTNAQLTIRCRQLLSELSYIYPIDLNENKDYFVCGVKLPNSEDFQAKDDGSIAVALGYTAHLVSMISFFLQVPLRYPIIHKGSRSTIKDNINDKLTEKEREFPLYPKGGEKLQFDYGVYLLNKNIAQLRYQHGLGTPDLRQTLPNLKNFMEHGLMVRCDRHHISNAIPVPKRQSSTFGGADGGFSAGIPSPDKVHRKRASSENERLQYKTPPPSYNSALTQPGVAMPTSGDSERKVAPLSSSLDTSLDFSKENKKAGVDLGSSVSGDHGNSDSGQEQGEALPGHLAAVNGTALPSEQAGPAGTLLPGSCHPAPSAELCCAVEQAEEIIGLEATGFTSGDQLEALSCIPVDSAVAVECDEQVLGEFEEFSRRIYALSENVSSFRRPRRSSDK",binding,[7],binds
